Data on 42 sequences can be found in paper PMC7819943, “Rice protein-binding microarrays: a tool to detect cis-acting elements near promoter regions in rice”.

By UniProt entry, the sequences of proteins in these tests, tags left out.
UniProt Q0JBA9, entry or part of it: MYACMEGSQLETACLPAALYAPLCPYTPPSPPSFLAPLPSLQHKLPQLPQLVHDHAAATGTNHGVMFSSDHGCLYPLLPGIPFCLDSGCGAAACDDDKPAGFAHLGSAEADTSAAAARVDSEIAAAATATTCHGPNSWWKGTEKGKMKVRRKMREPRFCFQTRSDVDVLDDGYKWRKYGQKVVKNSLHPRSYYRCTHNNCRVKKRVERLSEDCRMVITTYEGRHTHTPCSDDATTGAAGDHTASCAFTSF

The list shows a part of the results.

The test deals with OsWRKY34 (Oryza sativa, UniProt Q0JBA9 1-250). In words: protein-binding microarray (RPBM); PBS, 2% BSA, 51.3 ng/ul salmon testes DNA, 50 uM zinc acetate, 200 nM TF, 25 C, 1 h; high values mean tight binding. To be noted: protein: recombinant; tags: N-terminal polyhistidine and DsRed monomer fusion (pET32a); label: CyDye5-dUTP incorporated in the synthesized complementary strand; 3' TTTTT single-stranded linker to array surface; dsDNA, one strand shown. An outline of the steps: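 For the binding signal, per-feature fluorescence intensity was read in arbitrary units on an Axon 4000B scanner. Before scanning, a 2% BSA-blocked custom Agilent array made double-stranded with Cy5-dUTP was washed after 1 h at 25 °C with 200 nM protein and 50 µM zinc acetate. The proteins were Ni–NTA-purified transcription factors with N-terminal polyhistidine and DsRed fusions, expressed in E. coli BL21-CodonPlus.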
Consider “CGGACGGCCACCCGTCCCGCAACCCCGCCCCGCGTCGCCTCGGAGTCACCTAGTGCAG”, for which the binding signal is 8700 fluorescence intensity (a.u.).
For “CATCGAGCTCATCCTATTGACTAGTCATAATGGGTTGTAACGGAGTCACCTAGTGCAG” the value was 8810 fluorescence intensity (a.u.); for “CAGTATTGTTCATCTAGATTTCATTTTTCTTCTTGAATTGCGGAGTCACCTAGTGCAG”, 9390 fluorescence intensity (a.u.); for “ATATATATATATATATATATATATATTAAATTTGTTTGGTCGGAGTCACCTAGTGCAG”, 10400 fluorescence intensity (a.u.).
With “CGCAAACGAGATCCGGATCTCCTGCCTCTATCAGTATGACCGGAGTCACCTAGTGCAG”, the binding signal was 8590 fluorescence intensity (a.u.).
“AAGTTTCATCTAAAATTTTGTACTGTTGCCTTAGTCATATCGGAGTCACCTAGTGCAG”: the binding signal is 13000 fluorescence intensity (a.u.).
On to “CCCTATGTTTTTGTGTGGCCTAGATGGAGTTTTATAAAAACGGAGTCACCTAGTGCAG”, for which the binding signal is 10000 fluorescence intensity (a.u.).
In the case of “ACTATAGGGCTGTGTTTGCATCCCCATGTTCCCAACACTTCGGAGTCACCTAGTGCAG”, the binding signal was 10200 fluorescence intensity (a.u.).
For “CTTGTTGCTGTCTTGCATGTAAGCCGTATTTTCTCCCCATCGGAGTCACCTAGTGCAG” the value was 9170 fluorescence intensity (a.u.); for “GATTATTTACCTTTCACATAATATCGAGTATTTCTCAGTTCGGAGTCACCTAGTGCAG”, 9960 fluorescence intensity (a.u.); for “GCCACGGCCCATTAACGCATGCGACCTTAACCGCGCTGCACGGAGTCACCTAGTGCAG”, 8650 fluorescence intensity (a.u.).
On to “TTAAGGAGGGATTGGGAGTTTAGAGGGATGGGCTATTAAGCGGAGTCACCTAGTGCAG”, for which the binding signal was 8490 fluorescence intensity (a.u.).
For “TATGGGTCCCACGGGGTTATTATTTTCTGGATTCAATTGCCGGAGTCACCTAGTGCAG” the value was 8360 fluorescence intensity (a.u.).
As for “GCAGGCAACCAATATGAACTTTGACCCATAATAGCTGCATCGGAGTCACCTAGTGCAG”, the binding signal was 8350 fluorescence intensity (a.u.).
On to “ATCCATTGTTCAGACCTGCCTTATTACTAGCTGTAGAGATCGGAGTCACCTAGTGCAG”, for which the binding signal is 8670 fluorescence intensity (a.u.).
With “CCGTCCTCTCCCCGGCGCCCGTGAACCGGAGAGAAGAGAACGGAGTCACCTAGTGCAG”, the binding signal was 13100 fluorescence intensity (a.u.).
For “CTCGCTGCCCACCCTGCCTCCTCTGGTGTCGCCGCTCGACCGGAGTCACCTAGTGCAG”, the binding signal was 8660 fluorescence intensity (a.u.).
For “TTTGTTTGTTATACTGTAGGGATGTGACTGCTTGGGTCTTCGGAGTCACCTAGTGCAG”, the binding signal is 9020 fluorescence intensity (a.u.).
For “ACTTAATGGTATGGGTGAGCTCTCTTGAATGCATGCACACCGGAGTCACCTAGTGCAG”, the binding signal is 8380 fluorescence intensity (a.u.).
For “CTAAAACCTTGTTTCGACACTTTCTTATGTGCCACTATTTCGGAGTCACCTAGTGCAG” the value was 9340 fluorescence intensity (a.u.); for “TTTTTTCGTTGACCGTGTGACCGCTTCGTATCCTGCGCGGCGGAGTCACCTAGTGCAG”, 14700 fluorescence intensity (a.u.).
For “CCGATACTTGTAATACTTTTATTTCTTCTCGGTAATTAACCGGAGTCACCTAGTGCAG”, the binding signal was 8950 fluorescence intensity (a.u.).
With “TGCCGTCCGTCCCAACTTCGTCTGGGCCTCTCGCCAACCACGGAGTCACCTAGTGCAG”, the binding signal was 10600 fluorescence intensity (a.u.).
For the sequence “CATACTATTTATAAGATTTTATTGAATTGTTTCCTTGTTTCGGAGTCACCTAGTGCAG”, the binding signal is 9310 fluorescence intensity (a.u.).
Take “GAAGAGTGGGGAAGGATTTTTTTTTTTACATGTGGGTGCCCGGAGTCACCTAGTGCAG”: the binding signal was 8960 fluorescence intensity (a.u.).
Consider “ACTTTCTCTGTTTTTCATGTATTTCTCGTTTCTTAATTCCCGGAGTCACCTAGTGCAG”, for which the binding signal is 11300 fluorescence intensity (a.u.).
Next, “TTTGGTCACTGCATTGACCGGTCAGCATCAACGACTCCTTCGGAGTCACCTAGTGCAG”: 9690 fluorescence intensity (a.u.); “TGAGGTGGTGGTTCGGGCTCTCGCGGCGGCGTCTTCCATGCGGAGTCACCTAGTGCAG”: 9240 fluorescence intensity (a.u.); “CTAAAAGGATAGGTTGGTGTGGTGGGTTGGGCCGTGATTTCGGAGTCACCTAGTGCAG”: 14400 fluorescence intensity (a.u.).
“ATCGCCGGCTTCACCCTCGCCGCTCAATCCCAGCCGTCGGCGGAGTCACCTAGTGCAG”: the binding signal was 8860 fluorescence intensity (a.u.).
As for “TCCATGCAGTCTTCTTCTTCTGCAGCCTATGCTGTTAGTCCGGAGTCACCTAGTGCAG”, the binding signal was 11700 fluorescence intensity (a.u.).
In the case of “ATGCCTTTTTTTACCTTAGTTTCAATGAATATCATAAACACGGAGTCACCTAGTGCAG”, the binding signal is 8680 fluorescence intensity (a.u.).
Next, “GTCTTTATCCCCAACTGCATATCATCAAACTTTCCTAATACGGAGTCACCTAGTGCAG”: 8040 fluorescence intensity (a.u.).
“TGATTTCAAATGTCCTTTTGTGTTGGTGCCTGTTTTATCTCGGAGTCACCTAGTGCAG”: the binding signal is 9650 fluorescence intensity (a.u.).
As to “GGTAGCAGTTTCTTCAAGTACCTGAACTCTCATTTTGGGGCGGAGTCACCTAGTGCAG”, the binding signal is 10400 fluorescence intensity (a.u.).
For “TCGACACCGCCATTTGGTTAGCATCATCGGTCACTGCATTCGGAGTCACCTAGTGCAG” the value was 9130 fluorescence intensity (a.u.); for “GTATGCCATCTTGTATCCAACTTCGTCACCCGGTATCCTTCGGAGTCACCTAGTGCAG”, 11200 fluorescence intensity (a.u.); for “ATATCGTGATTATTACTCACCACACGTTGTACACAATGATCGGAGTCACCTAGTGCAG”, 8200 fluorescence intensity (a.u.).
On to “CTGCCTGCCTATTCATTCATTTTTGTAACTGATCGTTATTCGGAGTCACCTAGTGCAG”, for which the binding signal is 11400 fluorescence intensity (a.u.).
For “GTTGTCATCACCCGGCCTGTAGTGTGCGCTCTGATCCTAGCGGAGTCACCTAGTGCAG”, the binding signal is 8770 fluorescence intensity (a.u.).
For “CCTCATTTCTTTCATTCGCGTTGACTACTAATTTGCAGATCGGAGTCACCTAGTGCAG”, the binding signal is 10200 fluorescence intensity (a.u.).
On to “AGTGTGGTTGGGGATGAGGAAGAATGAGATAAGGTTGGGGCGGAGTCACCTAGTGCAG”, for which the binding signal is 8730 fluorescence intensity (a.u.).
